Reference: patent US4710497A, “Method for percutaneously administering physiologically active agents” (Nitto Electric Industrial Co., Ltd., priority 1985, dated 1987)

Key:
in vivo = conditions: rhesus monkey
Procedure: Male rhesus monkeys weighing 10-14 Kg each were used as the subject. An appropriate area of the monkey's chest was shaved 24 hours before drug application.
Drug formulations comprising the PEAC were applied to a certain area of the chest as indicated in each example. The monkey was restrained in a chair to prevent it from touching its chest.
Blood samples were taken at appropriate intervals after the application. The heparinized blood was centrifuged, and the plasma was removed and stored at -20° C. until analyzed. […]
To this solution was added 120 mg of Klucel® (cross-linked hydroxypropylcellulose type HF, Hercules Inc.) and the same stirred thoroughly to obtain a uniform gel.
1.0 ml of the gel was applied to 49 cm^2 of the chest area of the monkey; the applied area was left open to the air for the duration of the experiment.
In all instances the in vitro diffusion cell technique or the in vivo rhesus monkey test earlier described were used. In all instances analysis was by conventional HPLC (high pressure liquid chromatography). Details and citations are given for illustrative techniques.
To this solution was added 120 mg of hydroxypropylcellulose (Klucel® HF). […]

[1] = man; therapeutic oral doses; Kaplan et al 1973; cited from earlier work
[2] = topical or ocular, In Vivo monkey plasma level
[3] = topical or ocular, Monkey Plasma Level

## CN1C(=O)CN=C(c2ccccc2)c2cc(Cl)ccc21 [Diazepam, 7-Chloro-1,3-dihydro-1-methyl-5-phenyl-2H-1,4-benzodiazepine-2-one]
In vivo; po, Diazepam Plasma Level
  concentration at 1 h: 50 ng/mL
  concentration at 5 h: 34 ng/mL
In vivo; topical or ocular, 3 h
  Monkey Plasma Level: 42 ng/mL
In vivo; topical or ocular, 7 h
  Monkey Plasma Level: 30 ng/mL
In vivo; topical or ocular, Diazepam Plasma Level
  concentration at 2 h: 181 ng/mL
In vivo; [2]
  concentration at 1 h: 116 ng/mL
  concentration at 3 h: 57 ng/mL
  concentration at 5 h: 33 ng/mL
  concentration at 7 h: 29 ng/mL
In vivo; [3]
  concentration at 1 h: 35 ng/mL
  concentration at 3 h: 36 ng/mL
  concentration at 5 h: 37 ng/mL
  concentration at 7 h: 19 ng/mL
[1]
  blood levels: approximately 100 ng/ml plasma
